Measurements: the supplement of paper PMC10849652
Some of the results follow.

Amino acid sequences for entries named in this document (tags omitted). A change or cut given only in a name is not applied to a line headed by its entry.
UniProt P56524: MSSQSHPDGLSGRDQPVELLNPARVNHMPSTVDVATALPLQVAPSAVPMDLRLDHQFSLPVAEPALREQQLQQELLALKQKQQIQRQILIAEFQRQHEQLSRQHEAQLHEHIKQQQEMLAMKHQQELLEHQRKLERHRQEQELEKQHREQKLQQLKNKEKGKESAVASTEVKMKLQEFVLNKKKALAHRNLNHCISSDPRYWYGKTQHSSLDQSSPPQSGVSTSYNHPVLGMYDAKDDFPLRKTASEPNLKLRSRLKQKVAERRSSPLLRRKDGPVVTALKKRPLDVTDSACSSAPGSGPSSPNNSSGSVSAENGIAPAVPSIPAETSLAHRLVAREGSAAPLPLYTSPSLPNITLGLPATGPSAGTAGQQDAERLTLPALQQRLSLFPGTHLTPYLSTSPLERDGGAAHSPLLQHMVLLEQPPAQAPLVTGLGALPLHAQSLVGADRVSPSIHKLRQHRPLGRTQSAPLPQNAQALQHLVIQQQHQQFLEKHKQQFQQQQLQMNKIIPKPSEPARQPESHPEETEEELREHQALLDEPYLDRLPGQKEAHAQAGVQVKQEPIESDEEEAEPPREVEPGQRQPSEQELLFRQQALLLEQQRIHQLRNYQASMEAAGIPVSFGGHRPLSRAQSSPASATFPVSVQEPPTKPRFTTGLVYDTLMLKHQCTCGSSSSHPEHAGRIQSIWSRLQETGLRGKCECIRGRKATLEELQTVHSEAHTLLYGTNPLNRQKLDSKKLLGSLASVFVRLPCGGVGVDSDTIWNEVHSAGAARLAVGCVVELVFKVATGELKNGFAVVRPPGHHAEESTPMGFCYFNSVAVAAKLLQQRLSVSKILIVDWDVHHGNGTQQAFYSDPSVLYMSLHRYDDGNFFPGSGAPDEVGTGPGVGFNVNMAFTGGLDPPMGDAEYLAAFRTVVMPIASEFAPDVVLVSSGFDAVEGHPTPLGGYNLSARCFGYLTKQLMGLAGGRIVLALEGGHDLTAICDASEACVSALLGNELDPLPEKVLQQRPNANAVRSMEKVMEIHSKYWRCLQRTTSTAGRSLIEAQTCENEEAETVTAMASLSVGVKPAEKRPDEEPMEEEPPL
UniProt Q4G148: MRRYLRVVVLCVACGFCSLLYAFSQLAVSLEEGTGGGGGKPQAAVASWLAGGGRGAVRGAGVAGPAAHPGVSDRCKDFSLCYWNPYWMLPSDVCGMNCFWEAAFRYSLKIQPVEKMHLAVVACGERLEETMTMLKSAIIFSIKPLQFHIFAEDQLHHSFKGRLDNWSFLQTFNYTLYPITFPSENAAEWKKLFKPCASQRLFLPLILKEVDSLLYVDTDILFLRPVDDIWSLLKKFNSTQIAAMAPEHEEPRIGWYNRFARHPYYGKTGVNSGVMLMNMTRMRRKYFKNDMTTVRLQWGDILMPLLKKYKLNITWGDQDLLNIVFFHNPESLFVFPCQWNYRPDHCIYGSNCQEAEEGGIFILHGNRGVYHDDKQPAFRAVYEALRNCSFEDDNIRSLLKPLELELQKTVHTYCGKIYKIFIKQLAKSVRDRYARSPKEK
UniProt P12081: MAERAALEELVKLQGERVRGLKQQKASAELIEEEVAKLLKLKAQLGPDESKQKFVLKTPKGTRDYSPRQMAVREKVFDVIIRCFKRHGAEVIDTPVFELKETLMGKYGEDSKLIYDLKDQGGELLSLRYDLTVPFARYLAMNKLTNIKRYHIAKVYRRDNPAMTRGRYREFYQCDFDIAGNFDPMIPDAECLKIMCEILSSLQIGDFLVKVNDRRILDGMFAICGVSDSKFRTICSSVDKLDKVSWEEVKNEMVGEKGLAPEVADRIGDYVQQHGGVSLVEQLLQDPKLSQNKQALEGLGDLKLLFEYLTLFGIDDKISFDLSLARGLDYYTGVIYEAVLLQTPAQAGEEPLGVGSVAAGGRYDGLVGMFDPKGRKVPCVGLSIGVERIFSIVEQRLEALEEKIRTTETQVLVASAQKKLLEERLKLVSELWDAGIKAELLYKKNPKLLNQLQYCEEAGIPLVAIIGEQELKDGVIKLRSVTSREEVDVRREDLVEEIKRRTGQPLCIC
UniProt P51610: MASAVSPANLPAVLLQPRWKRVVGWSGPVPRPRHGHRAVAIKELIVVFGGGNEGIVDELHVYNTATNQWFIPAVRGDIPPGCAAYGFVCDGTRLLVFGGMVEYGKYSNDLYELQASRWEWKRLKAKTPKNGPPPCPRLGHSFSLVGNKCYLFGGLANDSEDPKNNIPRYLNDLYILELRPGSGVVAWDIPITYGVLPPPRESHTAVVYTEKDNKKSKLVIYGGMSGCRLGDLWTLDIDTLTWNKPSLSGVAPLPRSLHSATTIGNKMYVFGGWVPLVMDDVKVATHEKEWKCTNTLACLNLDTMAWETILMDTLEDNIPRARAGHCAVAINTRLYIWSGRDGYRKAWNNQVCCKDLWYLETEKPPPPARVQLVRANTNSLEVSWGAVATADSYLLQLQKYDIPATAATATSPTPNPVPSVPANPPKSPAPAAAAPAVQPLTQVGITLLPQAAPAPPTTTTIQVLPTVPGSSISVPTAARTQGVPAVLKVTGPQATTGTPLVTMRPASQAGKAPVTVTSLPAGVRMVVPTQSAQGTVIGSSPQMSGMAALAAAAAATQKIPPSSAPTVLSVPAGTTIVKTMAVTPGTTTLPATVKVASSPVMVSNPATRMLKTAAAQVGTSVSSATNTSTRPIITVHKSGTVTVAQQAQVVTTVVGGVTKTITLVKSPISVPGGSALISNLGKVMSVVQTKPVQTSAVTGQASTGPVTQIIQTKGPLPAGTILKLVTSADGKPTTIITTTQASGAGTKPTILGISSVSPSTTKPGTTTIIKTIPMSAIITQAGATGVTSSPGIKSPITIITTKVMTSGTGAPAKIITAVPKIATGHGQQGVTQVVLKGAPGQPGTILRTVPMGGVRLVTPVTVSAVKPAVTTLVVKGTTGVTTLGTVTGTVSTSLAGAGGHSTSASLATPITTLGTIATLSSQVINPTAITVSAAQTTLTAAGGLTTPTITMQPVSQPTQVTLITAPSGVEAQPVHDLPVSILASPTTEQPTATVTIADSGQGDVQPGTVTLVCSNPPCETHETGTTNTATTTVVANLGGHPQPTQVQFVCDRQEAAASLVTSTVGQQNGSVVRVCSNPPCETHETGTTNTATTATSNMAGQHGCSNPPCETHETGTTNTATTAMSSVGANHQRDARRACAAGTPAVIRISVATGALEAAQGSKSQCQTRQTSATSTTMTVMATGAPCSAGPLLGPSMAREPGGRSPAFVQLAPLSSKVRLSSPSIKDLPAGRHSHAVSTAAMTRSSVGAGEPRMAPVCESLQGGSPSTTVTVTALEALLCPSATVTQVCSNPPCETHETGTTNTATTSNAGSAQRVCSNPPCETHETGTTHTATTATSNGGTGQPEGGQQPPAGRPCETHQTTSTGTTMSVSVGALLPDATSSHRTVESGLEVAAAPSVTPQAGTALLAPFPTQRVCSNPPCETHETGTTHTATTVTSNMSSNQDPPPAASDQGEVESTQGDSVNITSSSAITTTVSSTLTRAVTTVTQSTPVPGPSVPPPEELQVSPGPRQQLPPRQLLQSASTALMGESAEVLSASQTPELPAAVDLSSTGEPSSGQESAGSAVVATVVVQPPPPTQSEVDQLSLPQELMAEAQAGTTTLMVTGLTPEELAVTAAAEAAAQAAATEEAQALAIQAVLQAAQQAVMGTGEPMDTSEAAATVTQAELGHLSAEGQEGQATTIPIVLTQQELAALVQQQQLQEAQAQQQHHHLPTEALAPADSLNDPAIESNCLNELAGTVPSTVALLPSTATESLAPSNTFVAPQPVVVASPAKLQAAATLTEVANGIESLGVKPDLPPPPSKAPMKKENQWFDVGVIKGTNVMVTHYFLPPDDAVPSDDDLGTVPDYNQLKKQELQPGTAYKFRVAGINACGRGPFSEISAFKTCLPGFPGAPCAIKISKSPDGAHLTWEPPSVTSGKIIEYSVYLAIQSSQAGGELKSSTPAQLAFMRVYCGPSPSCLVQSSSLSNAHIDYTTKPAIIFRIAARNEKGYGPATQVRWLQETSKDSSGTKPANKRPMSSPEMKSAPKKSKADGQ
UniProt P62993, whole entry, looked up: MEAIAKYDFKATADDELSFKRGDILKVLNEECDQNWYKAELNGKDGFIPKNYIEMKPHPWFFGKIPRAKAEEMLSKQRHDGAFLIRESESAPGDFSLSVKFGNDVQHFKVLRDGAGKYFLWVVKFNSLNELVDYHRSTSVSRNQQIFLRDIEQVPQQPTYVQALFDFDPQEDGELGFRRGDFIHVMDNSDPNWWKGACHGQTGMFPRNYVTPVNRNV
UniProt P69905, whole entry, looked up: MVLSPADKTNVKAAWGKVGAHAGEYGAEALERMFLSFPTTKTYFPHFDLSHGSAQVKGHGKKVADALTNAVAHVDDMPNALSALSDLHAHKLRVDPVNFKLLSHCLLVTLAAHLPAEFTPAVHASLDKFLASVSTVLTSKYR
UniProt P46976: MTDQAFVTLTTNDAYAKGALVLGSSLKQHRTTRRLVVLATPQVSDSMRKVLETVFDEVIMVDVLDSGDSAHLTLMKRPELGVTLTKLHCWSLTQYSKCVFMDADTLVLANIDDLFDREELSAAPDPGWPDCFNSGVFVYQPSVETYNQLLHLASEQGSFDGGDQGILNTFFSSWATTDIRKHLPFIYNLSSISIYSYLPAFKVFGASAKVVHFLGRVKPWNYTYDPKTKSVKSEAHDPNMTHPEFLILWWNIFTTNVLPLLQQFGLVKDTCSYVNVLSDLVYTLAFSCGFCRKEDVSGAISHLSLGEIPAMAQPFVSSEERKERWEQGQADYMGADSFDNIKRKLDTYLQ
UniProt Q7Z4H7: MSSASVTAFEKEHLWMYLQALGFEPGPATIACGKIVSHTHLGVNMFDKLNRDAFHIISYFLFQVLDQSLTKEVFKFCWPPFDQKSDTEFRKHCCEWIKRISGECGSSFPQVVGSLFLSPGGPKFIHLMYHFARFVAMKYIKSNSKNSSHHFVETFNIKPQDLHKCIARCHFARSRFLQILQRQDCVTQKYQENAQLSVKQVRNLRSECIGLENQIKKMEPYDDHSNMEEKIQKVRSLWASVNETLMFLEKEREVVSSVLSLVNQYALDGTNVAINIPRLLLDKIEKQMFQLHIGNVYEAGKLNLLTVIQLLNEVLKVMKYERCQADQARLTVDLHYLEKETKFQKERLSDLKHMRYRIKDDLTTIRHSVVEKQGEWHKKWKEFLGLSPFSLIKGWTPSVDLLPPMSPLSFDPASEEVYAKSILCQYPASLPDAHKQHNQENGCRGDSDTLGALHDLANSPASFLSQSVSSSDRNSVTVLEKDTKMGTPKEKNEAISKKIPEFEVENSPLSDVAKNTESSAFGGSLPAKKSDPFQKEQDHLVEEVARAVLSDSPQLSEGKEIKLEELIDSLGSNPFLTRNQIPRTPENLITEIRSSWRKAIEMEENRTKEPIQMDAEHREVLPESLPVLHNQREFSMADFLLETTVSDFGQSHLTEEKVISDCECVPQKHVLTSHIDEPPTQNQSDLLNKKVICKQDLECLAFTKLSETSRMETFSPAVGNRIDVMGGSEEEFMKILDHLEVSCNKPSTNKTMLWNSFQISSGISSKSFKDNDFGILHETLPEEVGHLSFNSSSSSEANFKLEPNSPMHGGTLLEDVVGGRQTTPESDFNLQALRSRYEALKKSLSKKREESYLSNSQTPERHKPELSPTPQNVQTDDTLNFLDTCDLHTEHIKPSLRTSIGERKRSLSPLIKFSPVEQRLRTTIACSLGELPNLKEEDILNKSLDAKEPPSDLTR
UniProt Q92769, whole entry, looked up: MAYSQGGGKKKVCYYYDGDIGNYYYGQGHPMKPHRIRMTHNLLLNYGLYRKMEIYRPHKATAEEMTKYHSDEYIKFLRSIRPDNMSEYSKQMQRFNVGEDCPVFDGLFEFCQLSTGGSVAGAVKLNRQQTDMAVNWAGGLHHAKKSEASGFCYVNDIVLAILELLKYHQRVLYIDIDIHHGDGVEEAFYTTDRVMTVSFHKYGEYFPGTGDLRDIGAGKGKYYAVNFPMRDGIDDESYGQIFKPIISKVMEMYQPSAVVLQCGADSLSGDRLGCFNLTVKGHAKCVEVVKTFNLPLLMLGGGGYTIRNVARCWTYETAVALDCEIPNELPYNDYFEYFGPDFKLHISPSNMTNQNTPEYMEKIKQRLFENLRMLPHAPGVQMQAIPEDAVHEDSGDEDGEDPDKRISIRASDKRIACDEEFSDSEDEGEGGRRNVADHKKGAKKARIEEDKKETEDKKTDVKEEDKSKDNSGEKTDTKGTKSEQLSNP
UniProt Q9P0R6: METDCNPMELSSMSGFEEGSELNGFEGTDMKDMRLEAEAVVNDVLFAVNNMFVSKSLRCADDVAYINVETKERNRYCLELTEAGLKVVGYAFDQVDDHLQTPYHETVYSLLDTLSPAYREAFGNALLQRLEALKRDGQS
UniProt Q03013: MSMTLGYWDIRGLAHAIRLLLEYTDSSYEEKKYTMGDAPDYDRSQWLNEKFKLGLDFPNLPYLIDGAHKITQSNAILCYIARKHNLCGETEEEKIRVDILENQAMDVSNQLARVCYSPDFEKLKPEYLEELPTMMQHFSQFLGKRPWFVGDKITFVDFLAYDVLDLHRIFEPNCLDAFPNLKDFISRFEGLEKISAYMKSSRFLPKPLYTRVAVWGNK

Key:
Assay in all cases: log2 fold change, soluble protein after heating vs DMSO (PISA); higher = thermal stabilisation; K562 lysate, 10 uM; active = over 0.2 and 3.5 SD of the protein, either way, in both replicates (recomputed)
[1] = compound: CS(=O)(=O)CCNCc1ccc(-c2ccc3ncnc(Nc4ccc(OCc5cccc(F)c5)c(Cl)c4)c3c2)o1 [lapatinib]
Method in brief: (§1)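 Following dounce homogenisation of K562 pellets in PBS pH 7.4 with 1 mM MgCl2, crude extract at 1 mg/mL protein was incubated for 30 min with 10 μM compound. Aliquots were then heated for 3 min over 48°C-58°C and pooled, NP-40 was added to 0.5% at 4°C, and soluble protein was recovered as the supernatant at 21,000xg for 90 min. Channel-sum-equalised TMTpro 16plex LC-MS/MS quantified this protein. Each value, from duplicates, is a log-two fold change in thermal stability relative to solvent controls.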

[2] = compound: CS(=O)(=O)N1CCN(Cc2cc3nc(-c4cccc5[nH]ncc45)nc(N4CCOCC4)c3s2)CC1 [pictilisib]
Method in brief: as §1

[3] = compound: C[C@@H](Oc1cc(-c2cnn(C3CCNCC3)c2)cnc1N)c1c(Cl)ccc(F)c1Cl [crizotinib]
Method in brief: as §1

[4] = compound: C[C@H](C1=CC=C(C=C1)C(=O)NC2=C3C=CNC3=NC=C2)N
Method in brief: as §1

[5] = compound: C[C@H](Nc1ncnc2nc[nH]c12)c1cc2cccc(Cl)c2c(=O)n1-c1ccccc1 [duvelisib]
Method in brief: as §1

[6] = compound: Cc1cc(Nc2cc(CN3CCOCC3)c3nc(C)c(Cc4ccc(Cl)cc4F)n3n2)n[nH]1 [gandotinib]
Method in brief: as §1

[7] = compound: Cc1cc(Nc2cc(N3CCN(C)CC3)nc(Sc3ccc(NC(=O)C4CC4)cc3)n2)n[nH]1 [tozasertib]
Method in brief: as §1

[8] = compound: Cc1ccc(-n2nc(C(C)(C)C)cc2NC(=O)Nc2ccc(OCCN3CCOCC3)c3ccccc23)cc1 [doramapimod]
Method in brief: as §1

[9] = compound: Cc1ccc(NC(=O)c2ccc(CN3CC[C@H](N(C)C)C3)c(C(F)(F)F)c2)cc1Nc1nccc(-c2cncnc2)n1 [bafetinib]
Method in brief: as §1

[10] = compound: Cc1cccc(CC(=O)N2CCc3c2ccc(-c2cn(C)c4ncnc(N)c24)c3F)n1
Method in brief: as §1

[11] = compound: Cc1cn(-c2cc(NC(=O)c3ccc(C)c(Nc4nccc(-c5cccnc5)n4)c3)cc(C(F)(F)F)c2)cn1 [nilotinib]
Method in brief: as §1

[12] = compound: Cc1nc(Nc2n[nH]c3c2CN(C(=O)N[C@H](CN(C)C)c2ccccc2)C3(C)C)c2sccc2n1
Method in brief: as §1

[13] = compound: Cc1nc(Nc2ncc(C(=O)Nc3c(C)cccc3Cl)s2)cc(N2CCN(CCO)CC2)n1 [dasatinib]
Method in brief: as §1

[14] = compound: Cc1ncc(-c2ccnc(Nc3ccc(S(C)(=O)=O)cc3)n2)n1C(C)C
Method in brief: as §1

[15] = compound: Cn1cc(-c2ccc3c(c2)CCN3C(=O)Cc2cccc(C(F)(F)F)c2)c2c(N)ncnc21
Method in brief: as §1

[16] = compound: Cn1cc(CNCC2CCN(c3ncc(C(=O)NO)cn3)CC2)c2ccccc21 [quisinostat]
Method in brief: as §1

[17] = compound: Cn1cncc1[C@@](N)(c1ccc(Cl)cc1)c1ccc2c(c1)c(-c1cccc(Cl)c1)cc(=O)n2C [tipifarnib]
Method in brief: as §1

[18] = compound: NC(=O)Nc1cc(-c2cccc(F)c2)sc1C(=O)N[C@H]1CCCNC1
Method in brief: as §1

[19] = compound: NC(=O)c1cnc(N[C@@H]2CCCC[C@@H]2N)nc1Nc1cccc(-n2nccn2)c1
Method in brief: as §1

[20] = compound: NC1(c2ccc(-c3nc4ccn5c(=O)[nH]nc5c4cc3-c3ccccc3)cc2)CCC1
Method in brief: as §1

Measured: log2 fold change

GRSF1 (UniProt Q12849)
inactive: [1] -0.001 | [2] 0.015 | [3] -0.031 | [4] -0.032 | [5] 0.006 | [6] 0.044 | [7] 0.024 | [8] 0.025 | [9] -0.041 | [10] 0.111 | [11] -0.006 | [12] 0.007 | [13] -0.024 | [14] 0.018 | [15] 0.019 | [16] 0.002 | [17] -0.013 | [18] 0.02 | [19] 0.017 | [20] -0.009

GSTZ1 (UniProt G3V4T6)
inactive: [1] 0 | [2] 0.04 | [3] -0.015 | [4] -0.067 | [5] 0.028 | [6] 0.061 | [7] 0.004 | [8] -0.035 | [9] -0.071 | [10] 0.146 | [11] 0.026 | [12] 0.009 | [13] -0.024 | [14] -0.016 | [15] 0.083 | [16] 0.016 | [17] 0.014 | [18] 0.029 | [19] -0.012 | [20] -0.007

HDAC4 (UniProt P56524)
inactive: [1] 0.014 | [2] -0.078 | [3] -0.007 | [4] 0.018 | [5] 0.025 | [6] 0.027 | [7] 0.017 | [8] 0.018 | [9] 0.024 | [10] 0.039 | [11] 0.029 | [12] 0.021 | [13] -0.014 | [14] 0.02 | [15] 0.047 | [16] 0.055 | [17] -0.075 | [18] -0.015 | [19] -0.005 | [20] 0

GXYLT1 (UniProt Q4G148)
inactive: [1] 0.087 | [2] -0.059 | [3] -0.018 | [4] -0.093 | [5] 0.166 | [6] 0.037 | [7] 0.004 | [8] 0.025 | [9] 0.058 | [10] 0.046 | [11] 0.043 | [12] -0.147 | [13] 0.025 | [14] -0.026 | [15] -0.17 | [16] -0.012 | [17] -0.109 | [18] -0.019 | [19] -0.007 | [20] -0.021

HARS (UniProt P12081)
inactive: [1] 0.008 | [2] 0.01 | [3] -0.009 | [4] 0.028 | [5] 0.014 | [6] -0.052 | [7] 0.006 | [8] 0.003 | [9] 0.015 | [10] -0.01 | [11] 0.031 | [12] 0.003 | [13] -0.006 | [14] -0.015 | [15] 0.008 | [16] -0.021 | [17] 0.019 | [18] -0.019 | [19] 0.005 | [20] 0.021

HCFC1 isoform 4 (UniProt P51610)
inactive: [1] 0.003 | [2] 0.011 | [3] 0.023 | [4] -0.02 | [5] -0.002 | [6] 0.04 | [7] -0.019 | [8] 0.001 | [9] -0.005 | [10] -0.017 | [11] 0.01 | [12] 0.007 | [13] 0 | [14] 0.008 | [15] -0.012 | [16] 0.006 | [17] -0.01 | [18] -0.008 | [19] -0.024 | [20] 0.023

HDDC3 (UniProt Q8N4P3)
inactive: [1] 0.013 | [2] 0 | [3] 0.046 | [4] -0.017 | [5] -0.008 | [6] -0.037 | [7] -0.003 | [8] 0.023 | [9] -0.132 | [10] -0.04 | [11] 0.002 | [12] 0.006 | [13] -0.024 | [14] -0.085 | [15] 0.027 | [16] 0.044 | [17] -0.029 | [18] -0.033 | [19] -0.026 | [20] 0.034

GRB2 (UniProt P62993)
inactive: [1] 0.009 | [2] 0.033 | [3] 0.03 | [4] 0.025 | [5] 0.023 | [6] 0.005 | [7] 0.021 | [8] -0.023 | [9] 0.017 | [10] -0.037 | [11] 0.014 | [12] 0.02 | [13] 0.019 | [14] -0.005 | [15] -0.007 | [16] -0.004 | [17] 0.027 | [18] -0.001 | [19] -0.024 | [20] -0.011

HBA1 (UniProt P69905)
inactive: [1] 0.08 | [2] 0.006 | [3] -0.001 | [4] 0.101 | [5] 0.048 | [6] -0.004 | [7] 0.059 | [8] 0.025 | [9] -0.031 | [10] -0.053 | [11] 0.08 | [12] 0.02 | [13] 0.024 | [14] 0.123 | [15] 0.006 | [16] 0.018 | [17] 0.03 | [18] -0.056 | [19] -0.052 | [20] -0.012

GSTCD (UniProt Q8NEC7)
inactive: [1] -0.006 | [2] -0.015 | [3] -0.037 | [4] -0.058 | [5] 0.09 | [6] 0.036 | [7] -0.037 | [8] 0 | [9] -0.053 | [10] 0.01 | [11] 0.039 | [12] -0.04 | [13] -0.003 | [14] -0.005 | [15] -0.098 | [16] -0.053 | [17] 0.01 | [18] 0.08 | [19] -0.014 | [20] -0.008

GYG1 isoform 2 (UniProt P46976)
inactive: [1] -0.036 | [2] -0.045 | [3] 0.069 | [4] 0.029 | [5] 0.074 | [6] -0.035 | [7] 0.187 | [8] 0.024 | [9] -0.021 | [10] -0.043 | [11] -0.001 | [12] -0.01 | [13] 0.044 | [14] 0.02 | [15] -0.006 | [16] 0.011 | [17] -0.062 | [18] -0.06 | [19] -0.02 | [20] 0.16

Quoted at random: 2 entries already listed.
HDDC3 (UniProt Q8N4P3)
inactive: [1] 0.013 | [2] 0 | [3] 0.046 | [4] -0.017 | [5] -0.008 | [6] -0.037 | [7] -0.003 | [8] 0.023 | [9] -0.132 | [10] -0.04 | [11] 0.002 | [12] 0.006 | [13] -0.024 | [14] -0.085 | [15] 0.027 | [16] 0.044 | [17] -0.029 | [18] -0.033 | [19] -0.026 | [20] 0.034

HBA1 (UniProt P69905)
inactive: [1] 0.08 | [2] 0.006 | [3] -0.001 | [4] 0.101 | [5] 0.048 | [6] -0.004 | [7] 0.059 | [8] 0.025 | [9] -0.031 | [10] -0.053 | [11] 0.08 | [12] 0.02 | [13] 0.024 | [14] 0.123 | [15] 0.006 | [16] 0.018 | [17] 0.03 | [18] -0.056 | [19] -0.052 | [20] -0.012

Additional results

HAUS6 (UniProt Q7Z4H7)
inactive: [1] 0.001 | [2] -0.028 | [3] -0.029 | [4] -0.054 | [5] 0.006 | [6] -0.041 | [7] 0.046 | [8] -0.009 | [9] 0.051 | [10] 0.104 | [11] -0.022 | [12] -0.008 | [13] -0.057 | [14] 0.022 | [15] 0.038 | [16] -0.066 | [17] 0.053 | [18] 0.035 | [19] -0.055 | [20] -0.004

HDAC2 (UniProt Q92769)
active: [16] 0.635
inactive: [1] -0.006 | [2] 0.002 | [3] 0.057 | [4] -0.047 | [5] -0.028 | [6] 0.018 | [7] 0.014 | [8] -0.05 | [9] -0.021 | [10] 0.028 | [11] -0.022 | [12] 0.014 | [13] -0.024 | [14] -0.013 | [15] 0.044 | [17] -0.011 | [18] 0.018 | [19] 0.001 | [20] -0.031

GSKIP (UniProt Q9P0R6)
inactive: [1] 0.069 | [2] -0.04 | [3] -0.06 | [4] 0.183 | [5] 0.021 | [6] 0.028 | [7] -0.095 | [8] 0.173 | [9] -0.025 | [10] -0.064 | [11] 0.031 | [12] -0.036 | [13] -0.056 | [14] 0.16 | [15] -0.037 | [16] 0.116 | [17] 0.025 | [18] -0.038 | [19] -0.072 | [20] -0.004

GSTM4 (UniProt Q03013)
inactive: [1] -0.091 | [2] 0.073 | [3] -0.006 | [4] -0.118 | [5] -0.034 | [6] 0.011 | [7] -0.12 | [8] 0.076 | [9] 0.029 | [10] 0.051 | [11] -0.163 | [12] 0.019 | [13] -0.047 | [14] 0.054 | [15] 0.118 | [16] 0.163 | [17] 0.008 | [18] -0.003 | [19] 0.024 | [20] -0.032

H2AZ1 (UniProt P0C0S5)
inactive: [1] -0.017 | [2] -0.028 | [3] 0.01 | [4] 0.024 | [5] -0.061 | [6] 0.016 | [7] -0.048 | [8] 0.032 | [9] -0.097 | [10] -0.031 | [11] -0.004 | [12] -0.007 | [13] -0.018 | [14] -0.011 | [15] 0.016 | [16] -0.077 | [17] -0.055 | [18] 0.03 | [19] -0.02 | [20] 0.009
